Assay [1] deals with PavD8-His (sweet cherry (Prunus avium)). In words: pull-down; His pull-down: His-tagged protein incubated with GST-tagged protein, pulled down with His agarose beads, immunoblot with anti-GST and anti-His; both purified. Background: Immunoblotting shows a protein as a band on a membrane.
Assay [2] concerns the target PavDREB1E-GST (sweet cherry (Prunus avium)). Nature of the assay: pull-down; GST pull-down: GST-tagged protein immobilised on glutathione agarose, incubated with His-tagged protein; in Fig. 5I a mixture of PavHY5-MBP (increasing amounts) and PavD8-His was added to PavDREB1E-GST on glutathione beads; both purified.

By UniProt entry, the sequences of proteins in these tests, tags left out. Where a name states a change or a piece, a line headed by the entry shows the natural chain unless it says otherwise.
UniProt A0A6P5RSY3: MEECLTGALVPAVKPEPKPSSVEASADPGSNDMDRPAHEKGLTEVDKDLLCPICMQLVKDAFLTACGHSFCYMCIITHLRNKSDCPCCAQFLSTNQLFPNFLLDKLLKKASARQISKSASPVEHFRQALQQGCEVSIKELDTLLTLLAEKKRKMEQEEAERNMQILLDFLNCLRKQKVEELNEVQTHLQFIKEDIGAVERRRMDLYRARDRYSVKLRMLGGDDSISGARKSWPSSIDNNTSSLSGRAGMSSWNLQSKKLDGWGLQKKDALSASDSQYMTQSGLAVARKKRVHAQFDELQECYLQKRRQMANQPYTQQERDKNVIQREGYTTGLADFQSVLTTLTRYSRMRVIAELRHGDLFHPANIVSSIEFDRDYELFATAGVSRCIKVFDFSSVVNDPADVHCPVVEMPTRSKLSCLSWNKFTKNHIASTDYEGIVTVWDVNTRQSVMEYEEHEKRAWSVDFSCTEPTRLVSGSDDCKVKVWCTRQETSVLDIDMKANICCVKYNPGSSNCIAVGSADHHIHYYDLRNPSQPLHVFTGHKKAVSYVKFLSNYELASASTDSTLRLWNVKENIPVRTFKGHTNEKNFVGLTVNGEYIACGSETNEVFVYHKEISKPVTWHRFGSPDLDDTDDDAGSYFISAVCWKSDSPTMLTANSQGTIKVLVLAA
UniProt A0A6P5SVV0: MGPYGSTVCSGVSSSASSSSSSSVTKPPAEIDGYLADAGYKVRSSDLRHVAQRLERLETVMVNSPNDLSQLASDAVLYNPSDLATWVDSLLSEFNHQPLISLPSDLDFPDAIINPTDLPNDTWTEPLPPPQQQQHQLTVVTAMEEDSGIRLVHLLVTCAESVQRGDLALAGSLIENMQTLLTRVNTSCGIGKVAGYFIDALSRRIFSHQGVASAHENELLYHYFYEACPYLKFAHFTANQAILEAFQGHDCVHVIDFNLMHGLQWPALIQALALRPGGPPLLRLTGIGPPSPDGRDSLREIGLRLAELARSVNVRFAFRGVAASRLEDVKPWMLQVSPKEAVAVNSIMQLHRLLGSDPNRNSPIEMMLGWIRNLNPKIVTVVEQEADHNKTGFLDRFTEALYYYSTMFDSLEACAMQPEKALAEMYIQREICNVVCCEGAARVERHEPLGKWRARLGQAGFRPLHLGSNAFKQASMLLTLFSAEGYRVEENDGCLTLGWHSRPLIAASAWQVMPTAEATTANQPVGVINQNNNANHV
UniProt A0A6P5RM44: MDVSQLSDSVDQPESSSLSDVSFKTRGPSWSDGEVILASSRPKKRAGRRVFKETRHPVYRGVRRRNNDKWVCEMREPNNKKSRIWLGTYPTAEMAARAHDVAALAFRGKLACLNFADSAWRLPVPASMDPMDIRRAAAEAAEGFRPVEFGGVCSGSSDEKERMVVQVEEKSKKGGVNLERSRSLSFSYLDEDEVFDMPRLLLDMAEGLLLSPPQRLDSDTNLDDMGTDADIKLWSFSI

Drawing on article PMC12700780, “The PavDREB1E–PavD8–PavHY5 module integrates light and gibberellin signals to regulate sweet cherry anthocyanin biosynthesis”, this text covers binding for three substances.

These are yes or no findings as the source states them, for the method shown. A result given as binding can be weak or reduced; the word gives no strength.

With PavCOP1-2-GST (from UniProt A0A6P5RSY3), the binding entry in assay [1] was “binds”.

Consider PavD8-His (from UniProt A0A6P5SVV0), for which, in assay [2], the binding result is given as “binds”.

With PavDREB1E-GST (from UniProt A0A6P5RM44), in assay [1], the binding entry is “binds”.
